Measurements: US8829202B2, “Condensed polycyclic aromatic compound, aromatic polymer, and method for synthesizing aromatic compound” (Teijin Limited, priority 2011, dated 2014)

Assay: Organic semiconductor characteristics (FET) of device with solution-cast thin layer
[1] = organic semiconductor device of Example A-3

Substance: Di-triisopropylsilylacetylene-substituted dinaphthothienothiophene [di-TIPS-substituted DNTT]
- carrier mobility [1]: 1×10^−3 cm^2/Vs
- on/off ratio [1]: 10^5
- threshold voltage [1]: −26 V
- semiconductor behavior (organic semiconductor device of Example A-3, film cast from 0.2 wt % chloroform solution): p-type semiconductor behavior
